Values from PubChem BioAssay AID504764 (Drosophila RNAi Screening Center, 2011)

- Aim: 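Genes whose knock-down alters Notch-dependent transcription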 (primary screen)
- Cell system: Drosophila Kc167 cells
- Reagents: long dsRNA against Drosophila genes
- Time to read-out: about 5 days (4 days dsRNA, then 24 h after transfection)
- Challenge: transfection of constitutively active membrane-tethered Notch lacking the extracellular domain, read 24 h later
- Measured: 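Firefly luciferase from an E(spl)m3 reporter with active Notch, plus control-promoter and uninduced reporter wells for normalisation; unnormalised counts, duplicate wells a and b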
- Scale: induced reporter light, run 1, well a and induced reporter light, run 1, well b: higher = more light from the Notch target reporter with active Notch; control promoter light, run 1, well a and control promoter light, run 1, well b: higher = more light from the viral control promoter (cell number, transfection, viability); uninduced reporter light, run 1, well a: higher = more light from the Notch target reporter without active Notch
- Active means: 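Hit if the duplicate-averaged log2 ratio of induced to control-promoter light gives a plate-wise z beyond ±2, or induced to uninduced beyond ±1.8; weak-control or discordant-duplicate wells dropped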
- Calls: active = modifier hit (raised or lowered Notch signal); inactive = not a hit
The deposit covers about 22,000 reagents; shown is an unselected part of those with a known target gene and a result. Over the whole deposit, 403 (1.9%) got an active call. 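Unnormalised raw counts per well; ratio z-scores behind the hit calls and whether each hit raises or lowers signal are not deposited.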 A number with no mark means an inactive call. The numbers tell different reagents against one gene apart. A plus sign joins genes that one reagent is predicted to hit. Not given: the amount of reagent.

Septin2
- induced reporter light, run 1, well a: 1412
- induced reporter light, run 1, well b: 65935
- control promoter light, run 1, well a: 89370
- control promoter light, run 1, well b: 91650
- uninduced reporter light, run 1, well a: 5630

vis + achi
- induced reporter light, run 1, well a: 76295
- induced reporter light, run 1, well b: 81405
- control promoter light, run 1, well a: 66470
- control promoter light, run 1, well b: 70410
- uninduced reporter light, run 1, well a: 6325

CG4594
- induced reporter light, run 1, well a: 2.47e5
- induced reporter light, run 1, well b: 2.42e5
- control promoter light, run 1, well a: 2.17e5
- control promoter light, run 1, well b: 2.27e5
- uninduced reporter light, run 1, well a: 16180

CG33225
- induced reporter light, run 1, well a: 85915
- induced reporter light, run 1, well b: 1.01e5
- control promoter light, run 1, well a: 79935
- control promoter light, run 1, well b: 76355
- uninduced reporter light, run 1, well a: 8370

CG1299
- induced reporter light, run 1, well a: 1.10e5
- induced reporter light, run 1, well b: 1.05e5
- control promoter light, run 1, well a: 1.43e5
- control promoter light, run 1, well b: 1.63e5
- uninduced reporter light, run 1, well a: 8032

Arr1
- induced reporter light, run 1, well a: 1.49e5
- induced reporter light, run 1, well b: 1.72e5
- control promoter light, run 1, well a: 1.71e5
- control promoter light, run 1, well b: 1.70e5
- uninduced reporter light, run 1, well a: 13935

CG14983
- induced reporter light, run 1, well a: 1.20e5
- induced reporter light, run 1, well b: 99720
- control promoter light, run 1, well a: 1.60e5
- control promoter light, run 1, well b: 1.37e5
- uninduced reporter light, run 1, well a: 8515

AIMP2
- induced reporter light, run 1, well a: 1.16e5
- induced reporter light, run 1, well b: 1.53e5
- control promoter light, run 1, well a: 85540
- control promoter light, run 1, well b: 86790
- uninduced reporter light, run 1, well a: 8320

TotC
- induced reporter light, run 1, well a: 53500
- induced reporter light, run 1, well b: 64660
- control promoter light, run 1, well a: 67390
- control promoter light, run 1, well b: 44610
- uninduced reporter light, run 1, well a: 8710

Spt5
- induced reporter light, run 1, well a: 58860
- induced reporter light, run 1, well b: 62550
- control promoter light, run 1, well a: 62415
- control promoter light, run 1, well b: 71125
- uninduced reporter light, run 1, well a: 6635

CG14204
- induced reporter light, run 1, well a: 1.15e5
- induced reporter light, run 1, well b: 1.04e5
- control promoter light, run 1, well a: 1.29e5
- control promoter light, run 1, well b: 1.18e5
- uninduced reporter light, run 1, well a: 12705

aux
- induced reporter light, run 1, well a: 1.10e5
- induced reporter light, run 1, well b: 1.14e5
- control promoter light, run 1, well a: 72465
- control promoter light, run 1, well b: 59625
- uninduced reporter light, run 1, well a: 7955

CG14316
- induced reporter light, run 1, well a: 2.05e5
- induced reporter light, run 1, well b: 1.74e5
- control promoter light, run 1, well a: 2.40e5
- control promoter light, run 1, well b: 2.66e5
- uninduced reporter light, run 1, well a: 13820

ms(2)35Ci
- induced reporter light, run 1, well a: 63950
- induced reporter light, run 1, well b: 55115
- control promoter light, run 1, well a: 70505
- control promoter light, run 1, well b: 50440
- uninduced reporter light, run 1, well a: 6420

CG10553
- induced reporter light, run 1, well a: 1.56e5
- induced reporter light, run 1, well b: 1.32e5
- control promoter light, run 1, well a: 2.03e5
- control promoter light, run 1, well b: 2.13e5
- uninduced reporter light, run 1, well a: 13055

AIMP1
- induced reporter light, run 1, well a: 2.01e5
- induced reporter light, run 1, well b: 1.69e5
- control promoter light, run 1, well a: 1.91e5
- control promoter light, run 1, well b: 2.05e5
- uninduced reporter light, run 1, well a: 14250

fwe #1
- induced reporter light, run 1, well a: 1.91e5
- induced reporter light, run 1, well b: 1.76e5
- control promoter light, run 1, well a: 2.83e5
- control promoter light, run 1, well b: 2.73e5
- uninduced reporter light, run 1, well a: 21085

fwe #2
- induced reporter light, run 1, well a: 1.25e5
- induced reporter light, run 1, well b: 1.10e5
- control promoter light, run 1, well a: 79345
- control promoter light, run 1, well b: 92395
- uninduced reporter light, run 1, well a: 10595

Targets listed so far whose target name begins with S or s (2):
Septin2
- induced reporter light, run 1, well a: 1412
- induced reporter light, run 1, well b: 65935
- control promoter light, run 1, well a: 89370
- control promoter light, run 1, well b: 91650
- uninduced reporter light, run 1, well a: 5630

Spt5
- induced reporter light, run 1, well a: 58860
- induced reporter light, run 1, well b: 62550
- control promoter light, run 1, well a: 62415
- control promoter light, run 1, well b: 71125
- uninduced reporter light, run 1, well a: 6635
